Data: PubChem BioAssay AID504444 (National Center for Advancing Translational Sciences (NCATS), 2011)
Hit rate of the full screen: of about 360,000 compounds, about 7,500 (2.1%) were called active. The inconclusive results got no clear call from the source; some entries with a clear call stand among them for comparison. Calls come from the whole dose curve; as a rule, active = well fitted inhibition curve with a large enough effect; inconclusive = small, poorly fitted or top-dose-only effect, or effect the other way; inactive = flat fitted curve, though single readings scatter. A potency beside an inconclusive call is a rough fit, not a confirmed value.
% is set by controls: 0 for no effect and ±100 for the full control effect; potency is the fitted concentration of half-maximal effect.

Assay: Nrf2 qHTS screen for inhibitors; note: nearly all actives have a fitted effect of over 60% in size
Details: A549 ARE-Fluc reporter, luciferase luminescence, 18-24 h; activity change, negative = inhibition: at 46 µM (top of the series)
Summary of the method: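 Nrf2 function is reported as luminescence of an ARE-controlled luciferase in A549 cells. Compounds were tested at several concentrations, and a CellTiter-Fluor read on the same wells flagged cytotoxicity.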
For `COc1cccc(N2CCN(C(=O)c3ccc(CS(=O)Cc4ccc(Cl)cc4)o3)CC2)c1` (stereo not drawn), the Potency was inconclusive: 16.4 µM [falling, single point]. In the case of `ON=C(CCc1ccccc1)c1ccccc1`, the Potency is reported as inconclusive: 14.6 µM [activator, partial curve]. With `COc1ccc(-c2noc(-c3ccco3)n2)cc1OC` the Potency was inconclusive: 13 µM [activator, partial curve]. For `CN(Cc1cccs1)C(=O)c1ccc(Cl)c(S(=O)(=O)N2CCCCCC2)c1`, the Potency was inconclusive: 23.1 µM [falling, single point]. With `c1ccn2c(SCc3ccc4c(c3)OCCO4)nnc2c1` the Potency was inconclusive: 1.03 µM [activator, partial curve, poor fit]. In the case of `COc1ccc(OCC(=O)N2CCC3(CC2)CC(=O)c2ccccc2O3)cc1`, the Potency is reported as inconclusive: 16.4 µM [falling, partial curve, poor fit]. In the case of `COc1ccc(CC(=O)N2CC(=O)Nc3ccc(F)cc3C2c2ccccc2)cc1` (stereo not drawn), the activity change, negative = inhibition is reported as inactive: -12.3% [at 9.27 µM]. With `Cc1c(C(=O)c2ccc(Cl)cc2Cl)cnc2cc3c(cc12)OCO3` the Potency was inconclusive: 23.1 µM [falling, single point]. In the case of `COc1ccc(C(=O)COC(=O)Cn2nnc3ccccc32)cc1Br`, the “activity change, negative = inhibition” value is reported as inactive: 3.61%. In the case of `O=c1c2ccccc2c2ccccc2c(=O)n1CC1CCCO1` (stereo not drawn), the Potency is reported as inconclusive: 18.4 µM [activator, single point]. With `c1ccc(-c2csc(-n3cnnn3)n2)cc1` the Potency was inconclusive: 16.4 µM [falling, partial curve]. With `Cc1ccc(O)c(CCc2ccc(O)cc2)n1` the Potency was inconclusive: 25.9 µM [activator, single point]. In the case of `CCSc1nnc(NC(=O)CSc2nc(CC)nc3c2c(=O)n(C)c(=O)n3C)s1`, the Potency is reported as inconclusive: 20.6 µM [falling, partial curve, poor fit]. In the case of `Cc1ccc(NC(=O)CN(C)C(=O)CNC(=O)c2ccc3c(c2)OCO3)cc1`, the Potency is reported as inconclusive: 23.1 µM [activator, partial curve, poor fit]. For `O=[N+]([O-])c1ccc(N2CCCCCC2)c([N+](=O)[O-])c1`, the Potency was inconclusive: 6.51 µM [falling, single point]. In the case of `COc1cc(NC2c3ccccc3C(=O)N2Cc2ccccc2Cl)cc(OC)c1` (stereo not drawn), the Potency is reported as inconclusive: 32.6 µM [falling, partial curve, poor fit]. With `Cc1nc2ccn(Cc3ccco3)c(=O)c2cc1C(=O)NCc1ccc(Cl)cc1` the Potency was inconclusive: 23.1 µM [falling, single point]. With `NC(=O)c1cc(S(=O)(=O)NCc2cccc(Br)c2)cs1` the Potency was inconclusive: 29.1 µM [falling, single point].
